PubChem BioAssay AID504744 | Drosophila RNAi Screening Center – 2011
The deposit covers about 23,000 reagents; below is a random part of those with a known target gene and a result. Of all reagents, 98 (0.43%) got an active call. 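Only hit calls are given; the phospho-dAkt signals, z-scores and hit direction were not deposited.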 A plus sign joins genes that one reagent is predicted to hit.

Assay: 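Uncover factors, including feedback loops, that control dAkt activation in fly cells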 (primary screen)
Cell system: Drosophila Kc167 cells
Reagent: long dsRNA against Drosophila genes, 250 ng dsRNA per well of a 384-well plate
Time to read-out: 3 days of knock-down, then overnight serum-free starvation before stimulation
Conditions: bovine insulin at 387 nM for 10 minutes after 12 h without serum
Measured: 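Per-well phospho-dAkt level from an in-cell fluorescent antibody stain, divided by a DNA-dye signal; log2 residuals turned into z-scores that take cell number into account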
Rule for the call: 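Hit in the insulin screen when the two-replicate mean z-score is more extreme than plus or minus 2.5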

| Target gene | DRSC id | call |
| --- | --- | --- |
| CG34171 | DRSC01637 | inactive |
| CG14757 | DRSC06492 | inactive |
| Bsg | DRSC01010 | inactive |
| Bsg | DRSC01011 | inactive |
| Ufsp2 | DRSC10231 | inactive |
| Pect | DRSC02867 | inactive |
| Pect | DRSC02868 | inactive |
| Naa40 | DRSC16265 | inactive |
| dpr6 | DRSC09005 | inactive |
| dpr6 | DRSC10162 | inactive |
| dpr6 | DRSC10163 | inactive |
| Pnn | DRSC16415 | inactive |
| Gcn5 | DRSC11248 | inactive |
| TpnC73F | DRSC11307 | inactive |
| bou | DRSC17924 | inactive |
| Uros1 | DRSC18191 | inactive |
| Pex11c | DRSC14677 | inactive |
| Nadk1b | DRSC05432 | inactive |
| Nadk1b | DRSC06964 | inactive |
| Nadk1b | DRSC06965 | inactive |
| mRpL47 | DRSC16827 | inactive |
| fan | DRSC10930 | inactive |
| reb | DRSC06308 | inactive |
| CG16700 | DRSC19755 | inactive |
| CG5103 | DRSC10481 | inactive |
| Vha36-2 | DRSC06294 | inactive |
| CG8245 | DRSC04901 | inactive |
| Cks30A | DRSC03292 | inactive |
| CG8343 | DRSC04905 | inactive |
| CG33062 | DRSC22195 | inactive |
| sing | DRSC19530 | inactive |
| Nap1 | DRSC04626 | inactive |
| CG11825 | DRSC06090 | inactive |
| CG17821 | DRSC06696 | inactive |
| Tengl1 | DRSC00481 | inactive |
| Arp5 | DRSC16350 | inactive |
| CG18549 | DRSC15347 | inactive |
| CG2120 | DRSC18207 | inactive |
| Tektin-A | DRSC01921 | inactive |
| Ptx1 | DRSC16804 | inactive |
| CG10222 | DRSC09714 | inactive |
| Alg10 | DRSC10892 | inactive |
| bel | DRSC16555 | inactive |
| CG13255 | DRSC11702 | inactive |
| fipi | DRSC00465 | inactive |
| Sr-CII | DRSC07557 | inactive |
| CG1441 | DRSC06448 | inactive |
| CG42565 | DRSC04154 | inactive |
| GrlHz | DRSC04424 | inactive |
| Nmt | DRSC11236 | inactive |
| sws | DRSC18843 | inactive |
| CG6280 | DRSC06972 | inactive |
| CG17929 | DRSC15291 | inactive |
| SoYb | DRSC02901 | inactive |
| Prosbeta4R1 | DRSC00502 | inactive |
| BoYb | DRSC11637 | inactive |
| Rab35 | DRSC20691 | inactive |
| CG31205 | DRSC13438 | active |
| CG9926 | DRSC16582 | inactive |
| Mtr3 | DRSC10953 | inactive |
| TfIIB | DRSC03454 | inactive |
| Usp39 | DRSC20032 | inactive |
| CG10510 | DRSC11614 | inactive |
| Hpf1 | DRSC12202 | inactive |
| siz | DRSC11622 | inactive |
| siz | DRSC11689 | inactive |
| siz | DRSC11690 | inactive |
| luna | DRSC05253 | inactive |
| luna | DRSC06663 | inactive |
| luna | DRSC07336 | inactive |
| lt | DRSC03759 | inactive |
| CG34205 | DRSC04149 | inactive |
| CG34205 | DRSC22823 | inactive |
| Blm + CG14721 | DRSC14943 | inactive |
| CG32301 | DRSC08613 | inactive |
| Fak | DRSC07426 | inactive |
| CG32686 | DRSC17645 | inactive |
| Gr64f | DRSC08447 | inactive |
| Slob | DRSC02296 | inactive |
| mthl12 | DRSC12964 | inactive |
| CG14518 | DRSC14870 | inactive |
| Csgalnact | DRSC06228 | inactive |
| Veneno | DRSC16537 | inactive |
| CG30279 (retired record) | DRSC22417 | inactive |
| kay | DRSC13962 | inactive |
| kay | DRSC15048 | inactive |
| kay | DRSC16977 | inactive |
| Pgant2 | DRSC00587 | inactive |
| PTP-ER | DRSC04636 | inactive |
| Dbp21E2 | DRSC00616 | inactive |
| Fim | DRSC20243 | inactive |
| Aptx | DRSC15768 | inactive |
| Obp83b | DRSC12360 | inactive |
| Lcp65Ae | DRSC11212 | inactive |
| CG33474 | DRSC05218 | inactive |
| CG13043 | DRSC09924 | inactive |
| CG6126 | DRSC15971 | inactive |
| CG12464 | DRSC06156 | inactive |
| Atg17 | DRSC12221 | inactive |
| CG33655 | DRSC03858 | inactive |
| CG14104 | DRSC10106 | inactive |
| CG1552 | DRSC19665 | inactive |
| CG12491 + CG34105 | DRSC04008 | inactive |
| CG12491 + CG34105 | DRSC04124 | inactive |
| CG11052 | DRSC14288 | inactive |
| CG14984 | DRSC08442 | inactive |
| Med | DRSC16737 | inactive |
| CG15056 | DRSC19630 | inactive |
| CG31730 | DRSC01308 | inactive |
| Obp22a | DRSC00088 | inactive |
| nebu | DRSC09807 | inactive |
| nebu | DRSC09808 | inactive |
| puml | DRSC06793 | inactive |
| P32 | DRSC06988 | inactive |
| CG4866 | DRSC06899 | inactive |
| Sol1 | DRSC15263 | inactive |
| Sol1 | DRSC15271 | inactive |
| Sol1 | DRSC15681 | inactive |
| PICK1 | DRSC02936 | inactive |
| Hr39 | DRSC03346 | inactive |
| goe | DRSC19345 | inactive |
| Pfrx | DRSC18856 | inactive |
| Pfrx | DRSC19315 | inactive |
| for | DRSC00195 | inactive |
| for | DRSC00818 | inactive |
| Yeti | DRSC21138 | inactive |
| Grx5 | DRSC19593 | inactive |
| CG6739 | DRSC02987 | inactive |
| Prtl99C | DRSC15049 | inactive |
| Obp99b | DRSC16264 | inactive |
| ste24c + CG30461 | DRSC05639 | inactive |
| ste24c + CG30461 | DRSC07316 | inactive |
| alpha-Est5 | DRSC12617 | inactive |
| Spase22-23 | DRSC15857 | inactive |
| cv-2 | DRSC03861 | inactive |
| cv-2 | DRSC04261 | inactive |
| CG4842 | DRSC10453 | inactive |
| CG12099 | DRSC08253 | inactive |
| Dsp1 | DRSC20315 | inactive |
| CG10479 | DRSC09733 | inactive |
| kni | DRSC11891 | inactive |
| CG17111 | DRSC15174 | inactive |
| His3.3B | DRSC17773 | inactive |
| His3.3B | DRSC18673 | inactive |
| Coq4 + Gorab + frc | DRSC10383 | inactive |
| mrn | DRSC10913 | inactive |
| tim | DRSC00841 | inactive |
| att-ORFB + DPCoAC | DRSC15556 | inactive |
| Nrd1 | DRSC19830 | inactive |
| CG31156 | DRSC15753 | inactive |
| CG31156 | DRSC15755 | inactive |
| CG7369 | DRSC11822 | inactive |
| CG33777 | DRSC08107 | inactive |
| glu | DRSC03539 | inactive |
| Mis12 | DRSC10299 | inactive |
| spaw | DRSC06824 | inactive |
| Cpr49Ah | DRSC07204 | active |

A few values from the list.
For “call”, His3.3B [DRSC18673] is entered as inactive
Result for CG12099 [DRSC08253] in “call”: inactive
Result for Nmt [DRSC11236] under “call”: inactive
Prtl99C [DRSC15049], call = inactive
Result for CG33062 [DRSC22195] under “call”: inactive
CG8245 [DRSC04901], call → inactive
